The other results are listed elsewhere or left out.
What was measured:
Assay in all cases: log2 fold change, soluble protein after heating vs DMSO (PISA); higher = thermal stabilisation; K562 cells, 10 uM, 30 min; active = over 0.2 and 3.5 SD of the protein, either way, in both replicates (recomputed)
[1] = compound: CN1CCN(CCOc2cc(OC3CCOCC3)c3c(Nc4c(Cl)ccc5c4OCO5)ncnc3c2)CC1 [saracatinib]
How it was run: (§1)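 K562 cells at 2×10^6 cells/mL were treated for 30 min with 10 μM compound, and aliquots were heated for 3 min over 48°C-58°C before pooling. Extraction used PBS with 0.5% NP-40 at 4°C, and soluble protein was the supernatant after 21,000xg for 90 min, measured by TMTpro 16plex LC-MS/MS with channel sums equalised. Thermal stability values, relative to control samples and from duplicates, are log2 fold changes.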

The chains behind the UniProt entries cited, without tags or fusion partners. Where a name states a change or a piece, a line headed by the entry shows the natural chain unless it says otherwise.
UniProt P60174, whole entry, looked up: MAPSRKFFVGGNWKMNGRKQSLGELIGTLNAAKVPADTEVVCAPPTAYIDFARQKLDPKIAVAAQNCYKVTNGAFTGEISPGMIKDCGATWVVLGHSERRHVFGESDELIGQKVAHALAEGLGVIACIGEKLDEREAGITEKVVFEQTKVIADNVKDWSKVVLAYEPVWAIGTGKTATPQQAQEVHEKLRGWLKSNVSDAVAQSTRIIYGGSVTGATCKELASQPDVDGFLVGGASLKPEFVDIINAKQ
UniProt Q8NFQ8: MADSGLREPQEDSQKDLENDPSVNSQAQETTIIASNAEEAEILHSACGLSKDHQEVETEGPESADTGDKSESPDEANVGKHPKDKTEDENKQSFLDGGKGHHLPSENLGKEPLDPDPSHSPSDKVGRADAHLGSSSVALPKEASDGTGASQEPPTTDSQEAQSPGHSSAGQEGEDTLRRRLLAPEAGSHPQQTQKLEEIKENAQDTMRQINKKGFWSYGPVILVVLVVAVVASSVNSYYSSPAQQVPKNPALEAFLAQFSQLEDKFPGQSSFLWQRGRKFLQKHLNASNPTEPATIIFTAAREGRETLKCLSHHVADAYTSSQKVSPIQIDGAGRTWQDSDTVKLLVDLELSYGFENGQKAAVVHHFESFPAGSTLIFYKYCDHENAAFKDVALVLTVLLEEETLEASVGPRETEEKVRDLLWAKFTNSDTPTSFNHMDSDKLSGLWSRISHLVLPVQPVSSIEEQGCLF
UniProt Q9UJA5: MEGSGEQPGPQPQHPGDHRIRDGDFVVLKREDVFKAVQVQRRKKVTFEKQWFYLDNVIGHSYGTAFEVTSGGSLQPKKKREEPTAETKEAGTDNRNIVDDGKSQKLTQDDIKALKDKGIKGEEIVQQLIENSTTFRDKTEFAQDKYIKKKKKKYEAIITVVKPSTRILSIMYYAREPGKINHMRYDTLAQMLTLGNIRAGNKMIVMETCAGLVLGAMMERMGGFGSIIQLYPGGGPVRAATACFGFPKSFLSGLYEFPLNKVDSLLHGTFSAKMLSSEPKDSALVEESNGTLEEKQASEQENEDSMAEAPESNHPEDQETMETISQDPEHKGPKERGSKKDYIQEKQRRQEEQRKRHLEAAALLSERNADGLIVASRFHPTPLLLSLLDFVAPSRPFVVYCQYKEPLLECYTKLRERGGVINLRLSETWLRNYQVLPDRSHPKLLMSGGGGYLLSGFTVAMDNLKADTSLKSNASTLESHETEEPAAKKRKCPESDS
UniProt Q9Y5S1: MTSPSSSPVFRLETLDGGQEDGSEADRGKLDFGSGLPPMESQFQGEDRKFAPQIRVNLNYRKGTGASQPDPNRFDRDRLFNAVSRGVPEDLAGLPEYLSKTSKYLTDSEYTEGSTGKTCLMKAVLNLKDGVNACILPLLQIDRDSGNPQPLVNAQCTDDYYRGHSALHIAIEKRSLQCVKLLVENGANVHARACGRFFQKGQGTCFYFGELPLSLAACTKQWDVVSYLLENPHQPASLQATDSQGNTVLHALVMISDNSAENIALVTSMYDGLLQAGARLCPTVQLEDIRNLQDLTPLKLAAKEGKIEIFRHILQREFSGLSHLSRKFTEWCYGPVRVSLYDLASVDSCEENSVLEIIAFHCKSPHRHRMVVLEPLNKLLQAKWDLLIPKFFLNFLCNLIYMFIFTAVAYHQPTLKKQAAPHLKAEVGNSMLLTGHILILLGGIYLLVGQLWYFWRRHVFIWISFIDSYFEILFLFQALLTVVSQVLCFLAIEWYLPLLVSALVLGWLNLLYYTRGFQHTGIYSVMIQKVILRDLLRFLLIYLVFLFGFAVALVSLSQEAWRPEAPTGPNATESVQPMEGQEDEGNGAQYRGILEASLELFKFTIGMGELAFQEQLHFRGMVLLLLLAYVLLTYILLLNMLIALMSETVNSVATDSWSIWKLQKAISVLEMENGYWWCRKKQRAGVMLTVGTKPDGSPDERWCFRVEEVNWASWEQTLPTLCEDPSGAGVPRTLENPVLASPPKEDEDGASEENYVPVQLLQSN
UniProt O14656: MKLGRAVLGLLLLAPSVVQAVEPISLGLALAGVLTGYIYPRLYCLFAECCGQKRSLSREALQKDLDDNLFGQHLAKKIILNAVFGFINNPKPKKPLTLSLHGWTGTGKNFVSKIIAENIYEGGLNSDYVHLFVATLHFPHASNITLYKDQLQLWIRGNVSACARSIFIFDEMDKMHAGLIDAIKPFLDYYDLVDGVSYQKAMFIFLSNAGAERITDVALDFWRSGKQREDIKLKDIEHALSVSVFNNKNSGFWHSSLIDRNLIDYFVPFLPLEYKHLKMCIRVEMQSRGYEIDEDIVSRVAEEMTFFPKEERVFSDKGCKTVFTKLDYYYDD
UniProt P06753, whole entry, looked up: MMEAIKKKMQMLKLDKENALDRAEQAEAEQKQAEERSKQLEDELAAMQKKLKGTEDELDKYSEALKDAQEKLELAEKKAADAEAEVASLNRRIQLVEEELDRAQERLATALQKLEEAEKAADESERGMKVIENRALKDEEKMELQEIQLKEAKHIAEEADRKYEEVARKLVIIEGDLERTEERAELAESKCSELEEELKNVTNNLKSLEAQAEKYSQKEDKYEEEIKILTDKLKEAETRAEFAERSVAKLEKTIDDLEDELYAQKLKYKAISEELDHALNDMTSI
UniProt O94842: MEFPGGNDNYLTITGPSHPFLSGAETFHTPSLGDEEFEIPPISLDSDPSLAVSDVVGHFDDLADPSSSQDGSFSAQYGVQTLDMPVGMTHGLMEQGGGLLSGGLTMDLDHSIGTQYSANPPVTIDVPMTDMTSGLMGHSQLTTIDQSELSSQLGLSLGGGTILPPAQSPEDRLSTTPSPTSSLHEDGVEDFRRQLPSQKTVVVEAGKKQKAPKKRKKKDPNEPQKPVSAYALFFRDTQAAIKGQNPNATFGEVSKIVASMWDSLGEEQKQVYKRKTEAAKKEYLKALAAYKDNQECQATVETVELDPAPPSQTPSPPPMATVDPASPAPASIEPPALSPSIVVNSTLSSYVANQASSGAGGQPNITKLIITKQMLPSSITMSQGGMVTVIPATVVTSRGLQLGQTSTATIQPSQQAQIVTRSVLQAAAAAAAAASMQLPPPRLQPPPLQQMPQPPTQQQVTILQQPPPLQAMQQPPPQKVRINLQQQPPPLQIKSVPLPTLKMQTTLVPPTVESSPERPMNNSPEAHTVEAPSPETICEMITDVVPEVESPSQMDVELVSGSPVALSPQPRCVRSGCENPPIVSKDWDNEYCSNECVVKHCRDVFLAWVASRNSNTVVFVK
UniProt Q16890: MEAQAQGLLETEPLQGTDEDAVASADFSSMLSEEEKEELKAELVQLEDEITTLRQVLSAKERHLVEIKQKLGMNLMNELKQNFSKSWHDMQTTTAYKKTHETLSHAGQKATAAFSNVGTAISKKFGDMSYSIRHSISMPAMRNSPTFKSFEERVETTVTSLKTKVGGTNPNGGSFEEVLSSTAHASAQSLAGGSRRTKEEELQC
UniProt P09493, whole entry, looked up: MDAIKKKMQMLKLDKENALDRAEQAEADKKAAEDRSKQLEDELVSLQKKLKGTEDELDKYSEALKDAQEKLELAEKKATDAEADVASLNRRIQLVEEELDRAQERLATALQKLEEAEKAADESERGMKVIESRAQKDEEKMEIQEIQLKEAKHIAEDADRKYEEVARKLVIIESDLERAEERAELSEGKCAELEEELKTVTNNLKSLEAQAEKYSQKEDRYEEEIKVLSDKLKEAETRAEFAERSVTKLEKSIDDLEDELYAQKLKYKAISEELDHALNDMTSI
UniProt Q9Y296, whole entry, looked up: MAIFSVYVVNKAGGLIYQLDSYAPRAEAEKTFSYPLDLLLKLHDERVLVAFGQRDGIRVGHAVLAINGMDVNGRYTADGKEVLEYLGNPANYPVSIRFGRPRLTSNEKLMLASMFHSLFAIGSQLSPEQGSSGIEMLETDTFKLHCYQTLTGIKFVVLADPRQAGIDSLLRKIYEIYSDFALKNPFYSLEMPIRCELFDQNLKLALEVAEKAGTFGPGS
UniProt Q15654: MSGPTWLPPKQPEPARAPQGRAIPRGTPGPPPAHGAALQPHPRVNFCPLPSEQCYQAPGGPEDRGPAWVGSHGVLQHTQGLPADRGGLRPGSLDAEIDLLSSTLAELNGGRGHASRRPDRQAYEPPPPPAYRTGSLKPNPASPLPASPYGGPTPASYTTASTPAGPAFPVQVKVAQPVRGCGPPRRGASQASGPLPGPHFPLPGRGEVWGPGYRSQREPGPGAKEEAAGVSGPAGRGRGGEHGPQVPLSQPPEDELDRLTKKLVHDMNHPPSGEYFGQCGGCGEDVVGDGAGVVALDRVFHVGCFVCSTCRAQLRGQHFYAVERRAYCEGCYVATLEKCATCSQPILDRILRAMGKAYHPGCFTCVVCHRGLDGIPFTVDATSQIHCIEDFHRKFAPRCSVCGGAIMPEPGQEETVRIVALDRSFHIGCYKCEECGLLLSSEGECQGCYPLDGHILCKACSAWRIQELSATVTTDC
UniProt Q96Q05, whole entry, looked up: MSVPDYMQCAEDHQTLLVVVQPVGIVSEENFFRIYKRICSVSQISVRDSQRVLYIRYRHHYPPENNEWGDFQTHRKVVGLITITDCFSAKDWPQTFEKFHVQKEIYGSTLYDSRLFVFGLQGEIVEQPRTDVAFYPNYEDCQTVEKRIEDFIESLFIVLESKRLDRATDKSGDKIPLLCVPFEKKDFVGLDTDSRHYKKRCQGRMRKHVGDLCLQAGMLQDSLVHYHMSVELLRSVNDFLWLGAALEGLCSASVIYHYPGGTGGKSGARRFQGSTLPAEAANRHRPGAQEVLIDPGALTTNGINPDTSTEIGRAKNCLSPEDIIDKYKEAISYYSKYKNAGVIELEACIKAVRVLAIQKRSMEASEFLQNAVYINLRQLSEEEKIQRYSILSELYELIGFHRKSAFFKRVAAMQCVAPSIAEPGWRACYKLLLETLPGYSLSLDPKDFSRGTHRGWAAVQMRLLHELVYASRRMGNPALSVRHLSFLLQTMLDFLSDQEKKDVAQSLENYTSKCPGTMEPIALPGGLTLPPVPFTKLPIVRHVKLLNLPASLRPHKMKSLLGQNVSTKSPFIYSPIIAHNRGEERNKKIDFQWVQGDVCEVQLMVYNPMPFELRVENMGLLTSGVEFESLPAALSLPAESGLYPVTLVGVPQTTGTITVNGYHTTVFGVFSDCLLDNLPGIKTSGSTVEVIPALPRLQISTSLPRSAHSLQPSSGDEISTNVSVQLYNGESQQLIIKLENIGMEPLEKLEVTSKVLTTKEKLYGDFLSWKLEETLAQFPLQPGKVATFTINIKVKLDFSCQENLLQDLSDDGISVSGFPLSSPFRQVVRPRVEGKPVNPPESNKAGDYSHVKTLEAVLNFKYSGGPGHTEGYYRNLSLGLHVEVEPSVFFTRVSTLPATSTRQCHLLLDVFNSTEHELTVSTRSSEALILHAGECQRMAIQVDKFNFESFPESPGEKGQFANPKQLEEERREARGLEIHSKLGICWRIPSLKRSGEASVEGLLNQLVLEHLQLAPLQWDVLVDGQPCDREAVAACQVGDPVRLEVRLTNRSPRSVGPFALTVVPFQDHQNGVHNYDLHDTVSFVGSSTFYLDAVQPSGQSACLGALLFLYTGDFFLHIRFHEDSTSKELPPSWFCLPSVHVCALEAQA

[2] = compound: CN1CCN(c2nc(C3=C(c4c[nH]c5ccccc45)C(=O)NC3=O)c3ccccc3n2)CC1 [sotrastaurin]
How it was run: as §1

[3] = compound: CN1CC[C@H](c2c(O)cc(O)c3c(=O)cc(-c4ccccc4Cl)oc23)[C@H](O)C1 [alvocidib]
How it was run: as §1

[4] = compound: CN1CCc2c(c3ccccc3n2Cc2ccc(C(=O)NO)cc2)C1 [Tubastatin A]
How it was run: as §1

[5] = compound: CNC(=O)C1=CC=CC=C1NC2=NC(=NC=C2Cl)NC3=C(C=C(C=C3)N4CCOCC4)OC
How it was run: as §1

[6] = compound: CNC(=O)c1ccc(Nc2ncc(C(F)(F)F)c(NCc3nccnc3N(C)S(C)(=O)=O)n2)cc1 [defactinib]
How it was run: as §1

[7] = compound: CNCc1ccc(-c2[nH]c3cc(F)cc4c3c2CCNC4=O)cc1 [rucaparib]
How it was run: as §1

[8] = compound: CNc1nc(-c2ccc3c(N)n[nH]c3c2)cc(N2C[C@@H](C(=O)NC3CCCCC3)CC[C@H]2C)n1
How it was run: as §1

[9] = compound: COC(=O)N[C@@H](C)CNc1nccc(-c2cn(C(C)C)nc2-c2cc(Cl)cc(NS(C)(=O)=O)c2F)n1 [encorafenib]
How it was run: as §1

[10] = compound: COC(=O)[C@H](CCSC)NC(=O)C1=C(C=C(C=C1)NC[C@H](CS)N)C2=CC=CC=C2
How it was run: as §1

[11] = compound: COC1=CC=C(C=C1)CN2C=CC3=C2C=C(C=C3)C(=O)NO
How it was run: as §1

[12] = compound: CON(C)C(=O)N1N=C(c2cc(F)ccc2F)S[C@@]1(CCCN)c1ccccc1 [filanesib]
How it was run: as §1

[13] = compound: CO[C@H]1C[C@@H]2CC[C@@H](C)[C@@](O)(O2)C(=O)C(=O)N2CCCC[C@H]2C(=O)O[C@H]([C@H](C)C[C@@H]2CC[C@H](n3cnnn3)[C@H](OC)C2)CC(=O)[C@H](C)/C=C(\C)[C@@H](O)[C@@H](OC)C(=O)[C@H](C)C[C@H](C)/C=C/C=C/C=C/1C [zotarolimus]
How it was run: as §1

[14] = compound: COc1cc(C(=O)O)ccc1NC(=O)[C@@H]1N[C@@H](CC(C)(C)C)[C@](C#N)(c2ccc(Cl)cc2F)[C@H]1c1cccc(Cl)c1F [idasanutlin]
How it was run: as §1

[15] = compound: COc1cc(Nc2ncc3c(n2)-c2ccc(Cl)cc2C(c2c(F)cccc2OC)=NC3)ccc1C(=O)O [alisertib]
How it was run: as §1

[16] = compound: COc1cc2nc(-c3cc(F)ccc3O)nc(N[C@@H]3CNC[C@H]3C(C)(C)O)c2cc1OC
How it was run: as §1

[17] = compound: COc1cc2ncnc(Nc3ccc(F)c(Cl)c3)c2cc1OCCCN1CCOCC1 [gefitinib]
How it was run: as §1

[18] = compound: COc1cccc2cc(-c3nc([C@H]4CC[C@H](C(=O)O)CC4)n4ncnc(N)c34)[nH]c12
How it was run: as §1

[19] = compound: CS(=O)(=O)CCNCc1ccc(-c2ccc3ncnc(Nc4ccc(OCc5cccc(F)c5)c(Cl)c4)c3c2)o1 [lapatinib]
How it was run: as §1

[20] = compound: CS(=O)(=O)N1CCN(Cc2cc3nc(-c4cccc5[nH]ncc45)nc(N4CCOCC4)c3s2)CC1 [pictilisib]
How it was run: as §1

Measured: log2 fold change

TPI1 (UniProt P60174)
inactive: [1] 0.032 | [2] 0.065 | [3] -0.004 | [4] -0.022 | [5] 0.069 | [6] -0.005 | [7] -0.013 | [8] -0.019 | [9] -0.039 | [10] 0.024 | [11] -0.043 | [12] -0.001 | [13] -0.037 | [14] 0.014 | [15] -0.01 | [16] 0.044 | [17] -0.003 | [18] 0.03 | [19] -0.053 | [20] 0.058

TPM1 (UniProt H7BYY1)
inactive: [1] 0.061 | [2] 0.05 | [3] 0.014 | [4] -0.072 | [5] -0.018 | [6] -0.005 | [7] 0 | [8] -0.03 | [9] -0.043 | [10] -0.139 | [11] -0.112 | [12] -0.012 | [13] -0.037 | [14] -0.12 | [15] -0.073 | [16] 0.006 | [17] 0.023 | [18] 0.049 | [19] -0.071 | [20] 0.042

TOR1AIP2 (UniProt Q8NFQ8)
inactive: [1] 0.012 | [2] -0.032 | [3] 0.014 | [4] 0.03 | [5] 0.033 | [6] 0.023 | [7] -0.032 | [8] -0.019 | [9] 0.015 | [10] -0.02 | [11] -0.063 | [12] 0.005 | [13] -0.011 | [14] -0.014 | [15] -0.058 | [16] -0.014 | [17] -0.012 | [18] 0.006 | [19] 0.046 | [20] 0.022

TRMT6 (UniProt Q9UJA5)
inactive: [1] -0.069 | [2] 0.04 | [3] 0.187 | [4] 0.011 | [5] -0.049 | [6] 0.057 | [7] 0.193 | [8] 0.04 | [9] 0.027 | [10] 0.017 | [11] -0.009 | [12] 0.18 | [13] 0 | [14] 0.102 | [15] -0.078 | [16] -0.161 | [17] 0.009 | [18] -0.079 | [19] 0.128 | [20] -0.047

TRPV2 (UniProt Q9Y5S1)
inactive: [1] 0.082 | [2] 0.041 | [3] -0.019 | [4] -0.018 | [5] -0.001 | [6] -0.017 | [7] -0.028 | [8] -0.075 | [9] -0.003 | [10] -0.052 | [11] -0.034 | [12] 0.007 | [13] -0.024 | [14] -0.039 | [15] -0.029 | [16] 0.083 | [17] 0.031 | [18] 0.052 | [19] 0.026 | [20] -0.023

TOR1A (UniProt O14656)
inactive: [1] 0.038 | [2] 0.065 | [3] -0.005 | [4] 0.012 | [5] -0.001 | [6] -0.003 | [7] -0.002 | [8] -0.038 | [9] -0.067 | [10] -0.023 | [11] 0 | [12] 0.001 | [13] -0.03 | [14] -0.011 | [15] 0.028 | [16] 0.015 | [17] 0.006 | [18] 0.1 | [19] -0.017 | [20] 0

TPP2 (UniProt Q5VZU9)
inactive: [1] -0.33 | [2] -0.155 | [3] 0.109 | [4] 0.294 | [5] -0.018 | [6] 0.327 | [7] 0.315 | [8] 0.134 | [9] 0.167 | [10] -0.118 | [11] 0.203 | [12] 0.109 | [13] 0.026 | [14] 0.305 | [15] -0.056 | [16] 0.107 | [17] -0.036 | [18] -0.188 | [19] -0.06

TPM3 isoform 4 (UniProt P06753)
inactive: [1] 0.037 | [2] 0.029 | [3] 0.068 | [4] -0.028 | [5] -0.1 | [6] 0.028 | [7] -0.047 | [8] -0.061 | [9] -0.001 | [10] 0.139 | [11] -0.116 | [12] 0.062 | [13] -0.093 | [14] 0.02 | [15] 0.029 | [16] 0.036 | [17] 0.06 | [18] 0.027 | [19] -0.001 | [20] -0.063

TOX4 (UniProt O94842)
inactive: [1] 0.002 | [2] -0.004 | [3] 0.342 | [4] -0.043 | [5] -0.029 | [6] 0.28 | [7] 0.21 | [8] 0.009 | [9] -0.005 | [10] 0.089 | [11] -0.087 | [12] 0.308 | [13] 0 | [14] 0.183 | [15] 0.009 | [16] 0.092 | [17] -0.01 | [18] -0.048 | [19] 0.047 | [20] -0.128

TPD52L1 (UniProt Q16890)
inactive: [1] 0.034 | [2] -0.024 | [3] -0.042 | [4] 0.032 | [5] -0.034 | [6] -0.031 | [7] -0.004 | [8] -0.022 | [9] -0.02 | [10] 0.021 | [11] -0.041 | [12] 0.007 | [13] -0.015 | [14] -0.068 | [15] 0.015 | [16] -0.044 | [17] -0.04 | [18] 0.032 | [19] 0.011 | [20] 0.031

Taken from above (two entries):
TOR1A (UniProt O14656)
inactive: [1] 0.038 | [2] 0.065 | [3] -0.005 | [4] 0.012 | [5] -0.001 | [6] -0.003 | [7] -0.002 | [8] -0.038 | [9] -0.067 | [10] -0.023 | [11] 0 | [12] 0.001 | [13] -0.03 | [14] -0.011 | [15] 0.028 | [16] 0.015 | [17] 0.006 | [18] 0.1 | [19] -0.017 | [20] 0

TPP2 (UniProt Q5VZU9)
inactive: [1] -0.33 | [2] -0.155 | [3] 0.109 | [4] 0.294 | [5] -0.018 | [6] 0.327 | [7] 0.315 | [8] 0.134 | [9] 0.167 | [10] -0.118 | [11] 0.203 | [12] 0.109 | [13] 0.026 | [14] 0.305 | [15] -0.056 | [16] 0.107 | [17] -0.036 | [18] -0.188 | [19] -0.06

Later entries

TPM1 isoform 4 (UniProt P09493)
inactive: [1] -0.017 | [2] -0.002 | [3] -0.016 | [4] 0.005 | [5] -0.015 | [6] -0.019 | [7] -0.066 | [8] -0.039 | [9] -0.041 | [10] 0.033 | [11] -0.03 | [12] -0.035 | [13] -0.007 | [14] 0.033 | [15] -0.097 | [16] 0.023 | [17] 0.036 | [18] -0.061 | [19] 0 | [20] -0.003

TRAPPC4 (UniProt Q9Y296)
inactive: [1] 0.071 | [2] 0.006 | [3] -0.017 | [4] -0.027 | [5] 0.002 | [6] -0.031 | [7] -0.063 | [8] -0.039 | [9] -0.022 | [10] 0.02 | [11] -0.041 | [12] -0.013 | [13] 0.01 | [14] -0.009 | [15] -0.049 | [16] 0.015 | [17] 0.017 | [18] 0.015 | [19] -0.012 | [20] -0.036

TRIP6 (UniProt Q15654)
inactive: [1] 0.028 | [2] -0.023 | [3] 0.016 | [4] -0.011 | [5] -0.041 | [6] -0.014 | [7] -0.012 | [8] -0.036 | [9] -0.029 | [10] 0.01 | [11] 0.064 | [12] -0.01 | [13] 0.009 | [14] 0.008 | [15] -0.065 | [16] -0.008 | [17] -0.022 | [18] -0.006 | [19] 0.012 | [20] -0.002

TRAPPC9 isoform 2 (UniProt Q96Q05)
inactive: [1] -0.013 | [2] 0.003 | [3] -0.035 | [4] -0.08 | [5] -0.023 | [6] -0.056 | [7] 0.008 | [8] 0.023 | [9] -0.014 | [10] -0.005 | [11] 0.006 | [12] -0.047 | [13] 0.027 | [14] 0.047 | [15] -0.013 | [16] -0.06 | [17] -0.018 | [18] 0.04 | [19] 0.041 | [20] -0.047

TPP2 (UniProt P29144)
inactive: [1] -0.218 | [2] -0.181 | [3] 0.126 | [4] 0.108 | [5] -0.094 | [6] 0.219 | [7] 0.175 | [8] 0.11 | [9] 0.182 | [10] 0 | [11] -0.107 | [12] 0.256 | [13] 0.046 | [14] 0.088 | [15] -0.214 | [16] -0.004 | [17] -0.024 | [18] -0.349 | [19] 0.198 | [20] -0.169

TPRKB (UniProt Q9Y3C4)
inactive: [1] 0.022 | [2] 0.001 | [3] -0.043 | [4] 0.03 | [5] -0.024 | [6] -0.036 | [7] -0.006 | [8] -0.019 | [9] 0.031 | [10] -0.015 | [11] -0.001 | [12] 0.003 | [13] -0.066 | [14] -0.046 | [15] -0.019 | [16] -0.008 | [17] 0.014 | [18] 0.06 | [19] -0.078 | [20] -0.028
